# According to the supplement of paper PMC9135407:
# Where “and” joins values, the source holds several entries; their conditions need not be identical. Identical values can stand only once. Counter-ions that a name gives are not always drawn. ± gives the standard deviation of the averaged measurements. Some of the results follow. Baselines shift from plate to plate; read single values as rough.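 Assay uses culture-activated primary human stellate myofibroblasts; lipid droplet recovery indicates inactivation. Measured: proportion of Hoechst-counted cells over a plate-specific Bodipy cutoff, duplicate wells, DMSO and nortriptyline as per-plate negative and positive controls. A hit scores, control-normalized, above the plate's top-tenth-percentile nortriptyline wells or ranks among its three best wells. Final well concentrations not reported.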
# Tested on: primary human hepatic stellate cells (donor 1)
# Experiment: percent Bodipy-positive cells; higher = more lipid droplet accumulation
# Conditions: 48 h
# [1] = library stock concentration: 10 mM
# [2] = library stock concentration: 3.33 mM
# [3] = library stock concentration: 80 uM
# [4] = library stock concentration: 400 uM
# [5] = library stock concentration: 2 mM
compound,measurement,setting,value
O=C(Cc1cccs1)N[C@@H]1C(=O)N2C(C(=O)[O-])=C(C[n+]3ccccc3)CS[C@H]12 [Cephaloridine],percent Bodipy-positive cells,[1],34.7 ± 12%
CO/N=C(\C(=O)N[C@@H]1C(=O)N2C(C(=O)O)=C(CSc3nc(=O)c(O)nn3C)CS[C@H]12)c1csc(N)n1 [Ceftriaxone sodium],percent Bodipy-positive cells,[1],42.8 ± 9.9%
CO/N=C(\C(=O)N[C@@H]1C(=O)N2C(C(=O)O)=C(CSc3nc(=O)c(O)nn3C)CS[C@H]12)c1csc(N)n1 [Ceftriaxone sodium trihydrate],percent Bodipy-positive cells,library stock concentration: 3.1 mM,16 ± 2.4%
same,percent Bodipy-positive cells,[1],40.5% and 53.3%
Oc1ccccc1O [Pyrocatechol],percent Bodipy-positive cells,[1],32.8 ± 2.2%
COc1cc(OC)c2c(=O)[nH]c(-c3cc(C)c(OCCO)c(C)c3)nc2c1,percent Bodipy-positive cells,[2],26.3 ± 4.7%
same,percent Bodipy-positive cells,[1],49.1 ± 3.2%
COc1cccc(NC(=O)/C=C/c2ccc(Cl)cc2)c1,percent Bodipy-positive cells,[1],39.8 ± 1.5%
CCOC(=O)OC(C)OC(=O)[C@@H]1N2C(=O)[C@@H](NC(=O)[C@H](N)c3ccccc3)[C@H]2SC1(C)C (stereo partly specified) [Bacampicillin hydrochloride],percent Bodipy-positive cells,,29 ± 6.3%
same,percent Bodipy-positive cells,library stock concentration: 4 mM,22.6 ± 2.8%
"CCCCC/C=C\C/C=C\C/C=C\CC1OC1CCCC(=O)O (stereo unspecified) [5,6-Epoxyeicosatrienoic acid]",percent Bodipy-positive cells,library stock concentration: 100 uM,12.4 ± 7.9%
CC(C)CCCCCCC/C=C/C(=O)O [trans-.DELTA.2-11-methyl-Dodecenoic Acid],percent Bodipy-positive cells,library stock concentration: 1 mM,9.89 ± 1.2%
NCC(O)c1ccc(O)c(O)c1 (racemic),percent Bodipy-positive cells,[1],30.7 ± 3.6%
O=C1CCC(c2ccc(-n3ccnc3)cc2)=NN1 [Imazodan],percent Bodipy-positive cells,[1],42.6 ± 30%
Cc1nc(NC(=O)N2CCC[C@H]2C(N)=O)sc1-c1csc(C(C)(C)C)n1,percent Bodipy-positive cells,[3],5.99 ± 1.7%
same,percent Bodipy-positive cells,[4],8.028 ± 0.025%
same,percent Bodipy-positive cells,[5],10.8 ± 8.1%
same,percent Bodipy-positive cells,[2],7.18 ± 2.6%
same,percent Bodipy-positive cells,[1],14.9% and 10.8%
COC1=C(OC)C(=O)C(CCCCCCCCCCO)=C(C)C1=O [Idebenone],percent Bodipy-positive cells,[2],7.92 ± 1.8%
same,percent Bodipy-positive cells,library stock concentration: 5.9 mM,7.52 ± 0.41%
same,percent Bodipy-positive cells,[1],13.4 ± 2.1%
O=C(NCCCNc1nc(Nc2cccc(NC(=O)N3CCCC3)c2)ncc1I)c1cccs1,percent Bodipy-positive cells,[1],91.79 ± 0.42%
CCNC(=O)N1CCN(CCCC(c2ccc(F)cc2)c2ccc(F)cc2)CC1 [Amperozide hydrochloride],percent Bodipy-positive cells,[1],78.9 ± 6.9%
Fc1ccc(C(OCCCc2cnc[nH]2)c2ccc(F)cc2)cc1,percent Bodipy-positive cells,[1],80.1 ± 1%
C=CC(=O)Nc1cc(NC(=O)c2ccc(C)c(NC(=O)c3ccno3)c2)cc(C(F)(F)F)c1,percent Bodipy-positive cells,[3],29.7 ± 36%
same,percent Bodipy-positive cells,[4],13.4 ± 5.7%
same,percent Bodipy-positive cells,[5],10.5 ± 4.9%
same,percent Bodipy-positive cells,[1],36.6 ± 3.7%
Cn1c(=O)c(-c2c(Cl)cccc2Cl)cc2cnc(Nc3ccc(N4CCOCC4)cc3)nc21,percent Bodipy-positive cells,[1],25.5 ± 2%
Cn1cc(-c2ccc(F)c(C(F)(F)F)c2)nc1C1CCN(c2ncnc3[nH]ncc23)CC1,percent Bodipy-positive cells,[3],3.91 ± 1.9%
same,percent Bodipy-positive cells,[4],3.75 ± 2.4%
same,percent Bodipy-positive cells,[5],14 ± 3.4%
same,percent Bodipy-positive cells,[1],36.6 ± 6.9%
O=C(Nc1c[nH]nc1-c1nc2ccc(CN3CCOCC3)cc2[nH]1)NC1CC1,percent Bodipy-positive cells,[3],63 ± 1.4%
same,percent Bodipy-positive cells,[4],77.7 ± 4.4%
same,percent Bodipy-positive cells,[5],61% and 83.2%
same,percent Bodipy-positive cells,[2],81.6 ± 6%
same,percent Bodipy-positive cells,[1],96.3% and 85.7% and 94.9%
CCOC(=O)[C@H](CCc1ccccc1)N[C@H]1CCc2ccccc2N(CC(=O)O)C1=O [Benazepril HCl],percent Bodipy-positive cells,[2],7.02 ± 1.7%
same,percent Bodipy-positive cells,[1],15.6 ± 3.3%
CCOC(=O)[C@H](CCc1ccccc1)N[C@H]1CCc2ccccc2N(CC(=O)O)C1=O,percent Bodipy-positive cells,[1],9.441 ± 0.055%
CNC(=O)[C@@H](Cc1ccccc1)N(C)C(=O)[C@@H](Cc1ccc2ccccc2c1)N(C)C(=O)/C=C/CC(C)(C)N.CNC(=O)[C@@H](Cc1ccccc1)N(C)C(=O)[C@@H](Cc1ccc2ccccc2c1)N(C)C(=O)/C=C/CC(C)(C)N.O=C(O)/C=C/C(=O)O [Tabimorelin],percent Bodipy-positive cells,[1],82.6 ± 5.3%
C=C1CC[C@H](O)C/C1=C/C=C1\CCC[C@]2(C)[C@@H]([C@H](C)CCCC(C)(C)O)CC[C@@H]12 [Calcifediol],percent Bodipy-positive cells,[2],6.66 ± 0.81%
same,percent Bodipy-positive cells,library stock concentration: 5 mM,5.57 ± 0.44%
same,percent Bodipy-positive cells,[1],32.2 ± 5.7%
CC(C)CC(=O)Nc1n[nH]c2c1CN(C(=O)C1CCN(C)CC1)C2(C)C,percent Bodipy-positive cells,[3],12.4 ± 2.7%
same,percent Bodipy-positive cells,[4],36.8 ± 8%
same,percent Bodipy-positive cells,[5],32.8 ± 3.5%
same,percent Bodipy-positive cells,[2],49.1 ± 1.2%
same,percent Bodipy-positive cells,[1],60.1% and 42.4%
O=C(NCCS(=O)(=O)c1ccc(C(F)(F)F)cn1)c1ccc(Cl)cc1,percent Bodipy-positive cells,[2],24.6 ± 2.1%
same,percent Bodipy-positive cells,[1],52.6 ± 27%
OC(c1ccccc1)C1CCN(CCc2ccccc2)CC1 (stereo unspecified),percent Bodipy-positive cells,[1],16.2 ± 1.9%
O=C([O-])[C@H]1/C(=C/CO)O[C@@H]2CC(=O)N21.[Li+] [Clavulanate lithium],percent Bodipy-positive cells,library stock concentration: 9.7 mM,12.5 ± 5.4%
CC(=O)N[C@@H](CC(C)C)C(=O)O [Acetyl-l-leucine],percent Bodipy-positive cells,[1],17.2 ± 10%
CC(=O)N[C@@H](CC(C)C)C(=O)O [N-Acetyl-L-leucine],percent Bodipy-positive cells,,7.46 ± 3.8%
Nc1nc(=O)c2nc(CNc3ccc(C(=O)N[C@@H](CCC(=O)O)C(=O)O)cc3)cnc2[nH]1 [Folic acid],percent Bodipy-positive cells,,40 ± 12%
same,percent Bodipy-positive cells,library stock concentration: 4.5 mM,14.3 ± 0.8%
same,percent Bodipy-positive cells,[1],32.8% and 30.3%
Nc1nc(F)nc2c1ncn2[C@@H]1O[C@H](CO)[C@@H](O)[C@@H]1O [Fludarabine],percent Bodipy-positive cells,[1],62 ± 5.6%
